Laboratory results: the supplement of paper PMC6078165
Values are relative to the signal before dosing, not to a vehicle control; the signal also falls without drug.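 The cancer cells are triple-negative breast cancer lines of basal-like or mesenchymal-like type, grown without fibroblasts. A drop in red signal reflects loss of mitochondrial integrity, a stand-in for apoptotic death.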

Tests used:
HCC1143 = assay: relative JC-1 red fluorescence (viability) vs pre-drug, monoculture (fraction); higher = more viable cancer cells; conditions: coculture fibroblast: none (monoculture)
Description: (§1)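 JC-1 labelled TNBC cells grown in monoculture (density kept equal with unlabelled cancer cells) in 384-well plates in FluoroBrite medium, treated with one of 42 anticancer drugs at 0.1, 1, 10 or 100 uM. JC-1 red fluorescence (mitochondrial integrity, surrogate of apoptotic death) was read by plate reader every 8 h for 72 h. Values are normalised to each well's pre-drug value, with background from alamethicin. The stock of one drug was tenfold lower, so its dose labels may be too high. Monoculture values are repeated alongside each fibroblast plate and are averaged here.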

MDAMB436 = assay: as above; conditions: coculture fibroblast: none (monoculture)
Description: as §1

O=NN(CCCl)C(=O)NC1CCCCC1 [Lomustine]
relative JC-1 red fluorescence
Conditions	8 h	16 h	24 h	32 h	40 h	48 h	56 h	64 h	72 h
HCC1143, 0.1 µM	0.869	0.778	0.722	0.681	0.647	0.621	0.607	0.606	0.598
HCC1143, 1 µM	0.885	0.792	0.7246	0.6746	0.6326	0.601	0.568	0.547	0.536
HCC1143, 10 µM	0.859	0.779	0.737	0.681	0.65	0.63	0.623	0.614	0.614
HCC1143, 100 µM	0.808	0.723	0.674	0.627	0.599	0.586	0.568	0.569	0.567
MDAMB436, 0.1 µM	0.852	0.774	0.801	0.772	0.779	0.781	0.793	0.801	0.828
MDAMB436, 1 µM	0.8544	0.753	0.7506	0.6994	0.681	0.663	0.65	0.642	0.637
MDAMB436, 10 µM	0.822	0.79	0.8036	0.765	0.76	0.765	0.762	0.771	0.776
MDAMB436, 100 µM	0.8287	0.779	0.817	0.784	0.796	0.816	0.819	0.83	0.853

CC(C)C[C@H](NC(=O)[C@@H](COC(C)(C)C)NC(=O)[C@H](Cc1ccc(O)cc1)NC(=O)[C@H](CO)NC(=O)[C@H](Cc1c[nH]c2ccccc12)NC(=O)[C@H](Cc1cnc[nH]1)NC(=O)[C@@H]1CCC(=O)N1)C(=O)N[C@@H](CCCNC(=N)N)C(=O)N1CCC[C@H]1C(=O)NNC(N)=O [Goserelin]
relative JC-1 red fluorescence
Conditions	8 h	16 h	24 h	32 h	40 h	48 h	56 h	64 h	72 h
HCC1143, 0.1 µM	0.8861	0.773	0.72	0.678	0.638	0.6059	0.58189	0.5634	0.559
HCC1143, 1 µM	0.883	0.819	0.759	0.702	0.653	0.613	0.589	0.5737	0.56
HCC1143, 10 µM	0.8823	0.8	0.737	0.69	0.644	0.616	0.586	0.581	0.567
HCC1143, 100 µM	0.945	0.902	0.885	0.864	0.844	0.821	0.799	0.787	0.773
MDAMB436, 0.1 µM	0.859	0.7123	0.718	0.681	0.659	0.648	0.642	0.639	0.64
MDAMB436, 1 µM	0.856	0.758	0.719	0.664	0.648	0.641	0.622	0.611	0.612
MDAMB436, 10 µM	0.882	0.78267	0.7876	0.7237	0.707	0.687	0.6824	0.6694	0.6709
MDAMB436, 100 µM	0.8919	0.7999	0.785	0.723	0.704	0.679	0.67	0.661	0.653
